## Screening data, single-dose tests

Sequences of proteins named here, by UniProt entry; tags and fusion partners are left off. Residues count along the entry.
UniProt A4I591, 1-473: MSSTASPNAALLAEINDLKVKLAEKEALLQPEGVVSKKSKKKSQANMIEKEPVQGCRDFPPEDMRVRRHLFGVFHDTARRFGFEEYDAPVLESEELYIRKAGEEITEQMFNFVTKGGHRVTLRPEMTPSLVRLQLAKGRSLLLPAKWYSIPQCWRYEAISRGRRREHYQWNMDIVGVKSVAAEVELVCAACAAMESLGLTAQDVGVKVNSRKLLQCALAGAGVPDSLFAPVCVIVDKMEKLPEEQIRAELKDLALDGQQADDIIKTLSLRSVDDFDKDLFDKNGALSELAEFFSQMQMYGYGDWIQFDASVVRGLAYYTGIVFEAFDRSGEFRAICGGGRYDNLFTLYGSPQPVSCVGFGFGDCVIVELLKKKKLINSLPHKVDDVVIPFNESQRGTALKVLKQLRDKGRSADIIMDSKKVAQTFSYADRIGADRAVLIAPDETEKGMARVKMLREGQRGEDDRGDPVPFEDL
UniProt P9WFT3, whole entry: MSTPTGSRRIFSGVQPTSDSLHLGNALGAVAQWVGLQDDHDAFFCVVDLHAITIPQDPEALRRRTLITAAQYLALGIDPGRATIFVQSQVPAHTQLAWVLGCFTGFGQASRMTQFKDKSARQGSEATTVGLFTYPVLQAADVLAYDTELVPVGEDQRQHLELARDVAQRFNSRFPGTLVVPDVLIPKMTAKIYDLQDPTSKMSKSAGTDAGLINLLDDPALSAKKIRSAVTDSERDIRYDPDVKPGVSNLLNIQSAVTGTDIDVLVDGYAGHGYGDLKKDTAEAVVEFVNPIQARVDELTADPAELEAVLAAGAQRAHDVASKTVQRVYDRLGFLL

Data taken from ChEMBL document CHEMBL3988442, “University of Dundee, Small-Polar-MMV Screening Library” (2021).

LiHisRS: 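Enzyme assay of histidyl-tRNA synthetase; the read-out is not stated. Target: Histidine-tRNA ligase, Leishmania infantum (UniProt A4I591). Compounds at 30 µM. Higher reads as stronger inhibition (inferred: compounds with an IC50 in retests scored well above the rest). The assay is labelled LdHisRS but filed under L. infantum. About 69,000 compounds were tested under these conditions; 0.6% (about 410) showed 50% or more at least once.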
T. brucei: 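Whole-parasite assay of Trypanosoma brucei over 72 hours; the read-out is not stated. Compounds at 30 µM. The record gives no direction; compounds that gave an IC50 in retests scored well above the rest, so higher reads as stronger inhibition. Values scatter widely below zero; nearly all retest evidence comes from the higher of the two concentrations used. Size under these conditions: about 64,000 compounds, about 940 of them at 50% or above in at least one test.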
MtTrpRS: 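Tryptophan-tRNA ligase, Mycobacterium tuberculosis (UniProt P9WFT3). Enzyme assay of tryptophanyl-tRNA synthetase; the read-out is not stated. Compounds at 10 µM. Higher most likely means stronger inhibition; the record gives no direction and few retests gave an IC50. Size under these conditions: about 65,000 compounds, about 64 of them at 50% or above in at least one test.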

The filed quantity is “Percent Effect” (%).
The controls that fix the scale are not given in the record; negative values are as filed.
The compounds are a random part of those screened.

{"structure": "O=S(=O)(Cc1ccc(F)cc1)NCc1ccco1", "LiHisRS": 3.03, "T. brucei": -24.83, "MtTrpRS": -0.4617}
{"structure": "CCN1CCC2(CC1)CC(COC)N(Cc1csc(C)n1)C2", "stereo": "centres undefined", "LiHisRS": 7.692, "MtTrpRS": -8.533}
{"structure": "O=C1CC(Nc2ccc3nccnc3n2)CN1c1ccccc1", "stereo": "centres undefined", "LiHisRS": 0, "T. brucei": -55.62, "MtTrpRS": -5.69}
{"structure": "c1cnn(CCN2CCOC(Cn3cccn3)C2)c1", "stereo": "centres undefined", "LiHisRS": 8.547, "MtTrpRS": 4.259}
{"structure": "Cc1nc(N2CCN(C(=O)c3ccccn3)CC2)c2c(n1)c(C)nn2C", "LiHisRS": 13.79, "T. brucei": -10.86, "MtTrpRS": 0.6477}
{"structure": "CN(Cc1ccco1)[C@@H]1CN(Cc2ccoc2)C[C@@H]2CCCO[C@@H]21", "LiHisRS": 14.55, "MtTrpRS": -1.046}
{"structure": "O=C(O)C(F)(F)F.[H][C@@]12CN(Cc3ccsc3)CCO[C@]1([H])CN(C(=O)C1CCOCC1)C2", "T. brucei": -16.35}
{"structure": "[H][C@@]12CCN(CC3CC3)C[C@@]1([H])[C@H](C(=O)N1CCCC1)CCO2", "T. brucei": -74.42}
{"structure": "Cc1ncsc1C(=O)N1CCCC(c2noc(C(C)C)n2)C1", "stereo": "centres undefined", "LiHisRS": 16.35, "T. brucei": -0.8274, "MtTrpRS": 2.275}
{"structure": "COCCN1CCC(CN(Cc2ccncc2)C2CCCCC2)CC1", "LiHisRS": 8.219, "T. brucei": -3.887, "MtTrpRS": -2.825}
{"structure": "NCC(=O)N1CCC(c2ccnc(Nc3cc(C(F)(F)F)ccn3)n2)C1", "stereo": "centres undefined", "LiHisRS": 7.092, "MtTrpRS": 8.977}
{"structure": "O=C(NCCCn1ccnc1)C1COCC(=O)N1Cc1ccccc1", "stereo": "centres undefined", "LiHisRS": 4.651, "T. brucei": -7.052, "MtTrpRS": 0.08211}
{"structure": "O=C(O)c1cnc(-c2cccc3c2CCNC3)c(Cl)c1", "LiHisRS": 19.58, "T. brucei": -2.141, "MtTrpRS": -12.22}
{"structure": "COCCNCC1(O)CCCN(Cc2ccc(F)c(F)c2)C1=O", "stereo": "centres undefined", "LiHisRS": 17.65, "T. brucei": -17.43, "MtTrpRS": -1.227}
{"structure": "CNC(=O)C1CCN(Cc2nc(-c3ccc(SC)cc3)oc2C)C1", "stereo": "centres undefined", "LiHisRS": 15.09, "T. brucei": 5.239, "MtTrpRS": 0}
{"structure": "COCCCN1CCCCC12CC(=O)N(Cc1ccccn1)C2", "stereo": "centres undefined", "LiHisRS": 8.772, "T. brucei": -23.39, "MtTrpRS": -2.748}
{"structure": "Cn1cc(C2CCCN2C(=O)c2ccc(Br)o2)cn1", "stereo": "centres undefined", "LiHisRS": 1.515, "T. brucei": -4.372, "MtTrpRS": -0.4873}
{"structure": "CNc1nc(C2CCCN(C(=O)C3CCCCC3)C2)nc2c1CNCC2", "stereo": "centres undefined", "LiHisRS": 11.35, "T. brucei": -7.008, "MtTrpRS": -6.078}